# Reference: PMC6377148
# Protein sequences, listed by entry. Tags and fused reporters are not part of them.
# UniProt P49336: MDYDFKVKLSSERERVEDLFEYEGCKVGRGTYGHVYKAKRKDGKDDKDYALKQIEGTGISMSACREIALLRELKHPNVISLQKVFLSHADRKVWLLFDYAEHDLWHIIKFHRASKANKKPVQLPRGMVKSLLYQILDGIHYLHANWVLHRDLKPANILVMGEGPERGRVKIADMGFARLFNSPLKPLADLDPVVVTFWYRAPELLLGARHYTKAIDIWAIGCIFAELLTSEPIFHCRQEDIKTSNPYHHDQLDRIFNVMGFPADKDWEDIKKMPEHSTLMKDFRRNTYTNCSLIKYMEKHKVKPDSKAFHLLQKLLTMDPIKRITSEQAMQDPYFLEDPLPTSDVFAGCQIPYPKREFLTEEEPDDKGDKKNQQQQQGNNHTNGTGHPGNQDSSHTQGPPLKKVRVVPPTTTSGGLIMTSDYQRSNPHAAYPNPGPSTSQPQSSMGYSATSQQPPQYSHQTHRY
# UniProt Q9BWU1: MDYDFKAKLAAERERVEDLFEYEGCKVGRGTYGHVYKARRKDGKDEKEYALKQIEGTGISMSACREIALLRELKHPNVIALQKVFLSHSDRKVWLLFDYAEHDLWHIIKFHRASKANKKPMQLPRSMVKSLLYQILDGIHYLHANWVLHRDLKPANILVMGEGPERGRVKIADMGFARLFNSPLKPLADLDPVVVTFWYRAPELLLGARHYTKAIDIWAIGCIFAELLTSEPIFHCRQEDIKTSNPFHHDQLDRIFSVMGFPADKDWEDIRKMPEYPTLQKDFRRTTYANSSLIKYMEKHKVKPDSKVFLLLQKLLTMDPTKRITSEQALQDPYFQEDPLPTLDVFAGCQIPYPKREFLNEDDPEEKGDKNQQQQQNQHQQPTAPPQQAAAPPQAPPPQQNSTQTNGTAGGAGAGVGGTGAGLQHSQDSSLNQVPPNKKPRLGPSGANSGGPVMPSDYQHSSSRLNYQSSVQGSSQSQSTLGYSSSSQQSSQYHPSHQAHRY
# These are yes or no findings as the source states them, for the method shown. In cells and extracts the contact can be indirect. These calls come from enrichment with a bait or labelling near it, and not all partners need be listed. Sequences can lack the tags named with a protein.
# T1: MTBP-Flag-GFP purified for mass spectrometry (human) (UniProt Q96DY7)
# T1 sequence: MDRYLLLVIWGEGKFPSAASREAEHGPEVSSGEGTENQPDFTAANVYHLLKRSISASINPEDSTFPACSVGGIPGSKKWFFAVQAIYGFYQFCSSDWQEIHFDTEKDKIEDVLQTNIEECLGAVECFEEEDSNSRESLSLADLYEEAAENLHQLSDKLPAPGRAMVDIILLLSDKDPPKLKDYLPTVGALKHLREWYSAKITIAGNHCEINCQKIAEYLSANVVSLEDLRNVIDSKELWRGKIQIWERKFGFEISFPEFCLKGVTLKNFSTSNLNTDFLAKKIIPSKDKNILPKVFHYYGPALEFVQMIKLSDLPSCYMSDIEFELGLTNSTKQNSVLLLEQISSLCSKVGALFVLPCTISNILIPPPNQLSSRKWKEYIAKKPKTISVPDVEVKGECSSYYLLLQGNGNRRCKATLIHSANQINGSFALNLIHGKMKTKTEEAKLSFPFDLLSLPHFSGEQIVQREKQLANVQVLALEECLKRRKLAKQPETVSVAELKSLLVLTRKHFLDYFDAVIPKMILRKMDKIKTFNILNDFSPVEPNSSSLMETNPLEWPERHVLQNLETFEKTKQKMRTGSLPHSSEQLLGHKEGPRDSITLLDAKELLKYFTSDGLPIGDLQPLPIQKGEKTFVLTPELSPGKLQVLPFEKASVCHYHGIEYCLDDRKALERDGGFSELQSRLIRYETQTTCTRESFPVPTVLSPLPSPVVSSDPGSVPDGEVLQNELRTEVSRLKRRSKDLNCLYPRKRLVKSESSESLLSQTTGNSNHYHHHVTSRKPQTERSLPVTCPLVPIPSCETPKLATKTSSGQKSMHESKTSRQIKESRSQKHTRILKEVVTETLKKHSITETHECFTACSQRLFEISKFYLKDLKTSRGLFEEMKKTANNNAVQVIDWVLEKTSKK
# Molecular target: T1, MTBP-Flag-GFP purified for mass spectrometry (human)
# Assay: affinity purification with mass spectrometry; purification of MTBP-Flag-GFP and mass spectrometry; cells and conditions not told
row,Molecule,binding
1,"Cdk8 (cyclin-dependent kinase 8), endogenous (from UniProt P49336 1-464) (enzyme)",binds
2,"Cdk19 (cyclin-dependent kinase 19), endogenous (from UniProt Q9BWU1 1-502) (enzyme)",binds
3,"cyclin C, endogenous (protein, UniProt P24863 1-283) MAGNFWQSSHYLQWILDKQDLLKERQKDLKFLSEEEYWKLQIFFTNVIQALGEHLKLRQQVIATATVYFKRFYARYSLKSIDPVLMAPTCVFLASKVEEFGVVSNTRLIAAATSVLKTRFSYAFPKEFPYRMNHILECEFYLLELMDCCLIVYHPYRPLLQYVQDMGQEDMLLPLAWRIVNDTYRTDLCLLYPPFMIALACLHVACVVQQKDARQWFAELSVDMEKILEIIRVILKLYEQWKNFDERKEMATILSKMPKPKPPPNSEGEQGPNGSQNSSYSQS",binds
